In article PMC10936414 (mBio, 2024):

Experiments:
[1] = test system: VSV-SARS-CoV-2; experiment: organism not typed; format: cell-based; settings: MA104, read-out: EC50 against VSV-SARS-CoV-2, MA104 cells, pre-treated 1 h, 24 h infection, MOI = 1, GFP signal
[2] = test system: VSV; experiment: microbe, parasite or virus in culture; format: cell-based; settings: Vesicular stomatitis virus, MA104, read-out: EC50 against VSV

CN[C@@H]1C[C@H]2O[C@@](C)([C@@H]1OC)n1c3ccccc3c3c4c(c5c6ccccc6n2c5c31)C(=O)NC4 [Staurosporine, staurosporine]
EC50 [1]: < 10 nM
EC50 [2]: 100 nM
